Some of the results follow.
Compound: Cc1cc(ccc1-c1ccccc1)C(=O)N1CCCN(CC1)C(=O)CCl [compound 10]
Experiment: probe-labelled cysteine peptide fold change vs DMSO (competition) (log2 fold change); higher = less target engagement (more negative = stronger competition)
Conditions: THP-1, incubation time: 4 h
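Also: competitive profiling in live THP-1 cells: cysteine peptides tagged with an iodoacetamide desthiobiotin (IA-DTB) probe, intensity after compound treatment relative to DMSO-treated cells.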

Sequences of proteins named here, by UniProt entry; tags and fusion partners are left off. A change or cut given only in a name is not applied to a line headed by its entry.
UniProt Q13129: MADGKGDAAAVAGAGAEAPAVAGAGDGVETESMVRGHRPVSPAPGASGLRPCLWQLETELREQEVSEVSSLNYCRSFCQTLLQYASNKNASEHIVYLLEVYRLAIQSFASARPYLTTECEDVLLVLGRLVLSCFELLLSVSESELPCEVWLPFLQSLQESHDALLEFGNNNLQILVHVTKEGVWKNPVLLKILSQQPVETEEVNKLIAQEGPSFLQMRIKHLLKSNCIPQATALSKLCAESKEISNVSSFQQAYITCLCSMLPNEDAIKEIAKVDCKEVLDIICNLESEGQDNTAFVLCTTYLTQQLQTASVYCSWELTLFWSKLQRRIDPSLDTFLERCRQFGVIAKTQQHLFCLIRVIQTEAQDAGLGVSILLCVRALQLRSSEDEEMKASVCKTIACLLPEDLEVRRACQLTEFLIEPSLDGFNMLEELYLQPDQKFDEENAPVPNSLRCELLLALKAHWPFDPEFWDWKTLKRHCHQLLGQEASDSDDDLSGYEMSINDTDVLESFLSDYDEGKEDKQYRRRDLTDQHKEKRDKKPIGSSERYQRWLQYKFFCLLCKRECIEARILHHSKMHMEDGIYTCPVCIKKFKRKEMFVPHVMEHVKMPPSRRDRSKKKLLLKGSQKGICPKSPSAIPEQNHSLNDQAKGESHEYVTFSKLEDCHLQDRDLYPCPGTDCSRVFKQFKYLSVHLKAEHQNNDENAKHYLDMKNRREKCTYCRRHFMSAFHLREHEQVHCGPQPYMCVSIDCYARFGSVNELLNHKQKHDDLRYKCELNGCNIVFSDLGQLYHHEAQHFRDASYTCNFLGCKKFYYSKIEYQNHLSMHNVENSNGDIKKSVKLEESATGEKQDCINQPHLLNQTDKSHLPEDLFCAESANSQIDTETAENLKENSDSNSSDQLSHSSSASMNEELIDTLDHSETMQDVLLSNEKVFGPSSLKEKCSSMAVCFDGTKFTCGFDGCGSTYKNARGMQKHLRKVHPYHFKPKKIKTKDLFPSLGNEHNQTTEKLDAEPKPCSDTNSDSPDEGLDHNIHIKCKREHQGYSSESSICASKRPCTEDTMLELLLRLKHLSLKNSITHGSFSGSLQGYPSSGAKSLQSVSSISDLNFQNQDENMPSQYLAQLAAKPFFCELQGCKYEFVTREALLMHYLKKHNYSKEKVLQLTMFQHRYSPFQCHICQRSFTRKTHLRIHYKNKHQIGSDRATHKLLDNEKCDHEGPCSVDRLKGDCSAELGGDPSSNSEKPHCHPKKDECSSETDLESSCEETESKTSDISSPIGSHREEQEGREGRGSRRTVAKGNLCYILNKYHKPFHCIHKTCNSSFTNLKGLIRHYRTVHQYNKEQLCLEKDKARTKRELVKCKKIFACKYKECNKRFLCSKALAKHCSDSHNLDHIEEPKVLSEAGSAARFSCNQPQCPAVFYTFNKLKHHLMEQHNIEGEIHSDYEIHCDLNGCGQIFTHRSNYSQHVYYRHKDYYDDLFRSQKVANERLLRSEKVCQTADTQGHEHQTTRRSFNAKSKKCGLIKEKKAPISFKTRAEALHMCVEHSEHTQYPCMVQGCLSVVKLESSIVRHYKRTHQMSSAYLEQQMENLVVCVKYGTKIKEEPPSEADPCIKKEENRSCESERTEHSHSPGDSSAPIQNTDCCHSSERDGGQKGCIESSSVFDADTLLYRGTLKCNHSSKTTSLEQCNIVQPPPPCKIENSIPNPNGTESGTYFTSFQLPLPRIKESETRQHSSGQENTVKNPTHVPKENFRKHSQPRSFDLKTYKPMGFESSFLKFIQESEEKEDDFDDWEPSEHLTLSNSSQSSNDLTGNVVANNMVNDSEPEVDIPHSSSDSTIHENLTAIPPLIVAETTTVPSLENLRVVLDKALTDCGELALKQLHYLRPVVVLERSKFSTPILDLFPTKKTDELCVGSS
UniProt Q9Y508: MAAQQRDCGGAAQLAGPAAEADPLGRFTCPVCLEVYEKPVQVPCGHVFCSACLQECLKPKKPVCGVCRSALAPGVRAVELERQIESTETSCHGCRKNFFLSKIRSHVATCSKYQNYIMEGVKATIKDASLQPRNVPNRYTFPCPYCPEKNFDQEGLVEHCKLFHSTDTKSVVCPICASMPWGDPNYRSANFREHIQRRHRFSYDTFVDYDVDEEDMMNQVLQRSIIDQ
UniProt O14924: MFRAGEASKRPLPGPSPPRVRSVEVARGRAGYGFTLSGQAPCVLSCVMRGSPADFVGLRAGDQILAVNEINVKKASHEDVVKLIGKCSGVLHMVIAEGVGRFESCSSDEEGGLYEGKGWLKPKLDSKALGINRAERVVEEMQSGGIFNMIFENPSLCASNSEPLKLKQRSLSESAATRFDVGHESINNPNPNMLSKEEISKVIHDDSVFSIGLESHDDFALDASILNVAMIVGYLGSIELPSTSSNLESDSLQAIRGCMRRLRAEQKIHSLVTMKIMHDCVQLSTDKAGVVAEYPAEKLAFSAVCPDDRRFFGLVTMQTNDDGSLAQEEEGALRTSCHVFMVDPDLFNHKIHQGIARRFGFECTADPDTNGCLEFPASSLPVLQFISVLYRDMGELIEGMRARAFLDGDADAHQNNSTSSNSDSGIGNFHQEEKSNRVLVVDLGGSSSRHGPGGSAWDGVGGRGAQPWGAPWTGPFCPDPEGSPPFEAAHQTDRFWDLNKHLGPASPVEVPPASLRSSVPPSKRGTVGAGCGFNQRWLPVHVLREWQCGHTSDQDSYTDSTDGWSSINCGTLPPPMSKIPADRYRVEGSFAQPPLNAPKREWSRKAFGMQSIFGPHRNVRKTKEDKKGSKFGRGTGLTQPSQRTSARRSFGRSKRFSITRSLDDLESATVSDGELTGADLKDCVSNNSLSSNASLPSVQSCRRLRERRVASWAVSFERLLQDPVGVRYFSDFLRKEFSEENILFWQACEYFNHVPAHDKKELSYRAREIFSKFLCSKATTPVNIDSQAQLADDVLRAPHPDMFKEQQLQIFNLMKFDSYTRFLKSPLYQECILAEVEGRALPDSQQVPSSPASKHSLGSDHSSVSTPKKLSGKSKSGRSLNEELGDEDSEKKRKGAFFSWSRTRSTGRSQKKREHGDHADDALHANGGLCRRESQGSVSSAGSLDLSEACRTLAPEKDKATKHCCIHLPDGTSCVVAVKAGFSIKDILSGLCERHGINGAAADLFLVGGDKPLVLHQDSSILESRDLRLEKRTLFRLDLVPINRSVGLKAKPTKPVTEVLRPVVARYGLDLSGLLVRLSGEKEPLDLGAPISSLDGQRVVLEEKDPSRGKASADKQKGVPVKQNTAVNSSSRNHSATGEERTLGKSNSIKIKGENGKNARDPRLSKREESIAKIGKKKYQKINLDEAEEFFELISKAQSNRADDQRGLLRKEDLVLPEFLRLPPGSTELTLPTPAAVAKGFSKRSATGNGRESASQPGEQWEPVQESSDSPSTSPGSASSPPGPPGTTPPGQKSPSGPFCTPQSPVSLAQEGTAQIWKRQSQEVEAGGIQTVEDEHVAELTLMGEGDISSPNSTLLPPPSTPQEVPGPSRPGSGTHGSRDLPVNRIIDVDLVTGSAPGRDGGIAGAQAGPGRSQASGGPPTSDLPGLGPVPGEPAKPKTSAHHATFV
UniProt P51606: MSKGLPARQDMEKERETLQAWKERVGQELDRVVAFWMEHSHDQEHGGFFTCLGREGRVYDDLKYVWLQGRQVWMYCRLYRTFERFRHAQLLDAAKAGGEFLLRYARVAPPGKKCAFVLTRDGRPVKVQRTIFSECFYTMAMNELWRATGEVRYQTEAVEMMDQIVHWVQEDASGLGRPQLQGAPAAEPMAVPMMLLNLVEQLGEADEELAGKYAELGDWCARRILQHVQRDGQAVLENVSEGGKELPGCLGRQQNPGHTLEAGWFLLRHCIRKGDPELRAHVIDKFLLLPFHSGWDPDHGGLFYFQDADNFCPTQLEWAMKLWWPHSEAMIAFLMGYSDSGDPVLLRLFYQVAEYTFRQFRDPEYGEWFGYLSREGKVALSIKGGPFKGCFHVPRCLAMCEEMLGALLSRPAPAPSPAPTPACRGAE
UniProt Q9H871: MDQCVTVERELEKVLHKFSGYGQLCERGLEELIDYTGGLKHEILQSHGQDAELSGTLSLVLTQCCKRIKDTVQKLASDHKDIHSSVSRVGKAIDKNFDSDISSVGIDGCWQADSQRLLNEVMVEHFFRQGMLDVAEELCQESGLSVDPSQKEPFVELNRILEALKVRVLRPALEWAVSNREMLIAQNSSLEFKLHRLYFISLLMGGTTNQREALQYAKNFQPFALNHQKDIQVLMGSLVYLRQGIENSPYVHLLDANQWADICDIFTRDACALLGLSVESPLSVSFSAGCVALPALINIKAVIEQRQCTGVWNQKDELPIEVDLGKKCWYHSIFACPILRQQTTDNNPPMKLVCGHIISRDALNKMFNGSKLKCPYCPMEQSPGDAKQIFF
UniProt Q6R327, whole entry, looked up: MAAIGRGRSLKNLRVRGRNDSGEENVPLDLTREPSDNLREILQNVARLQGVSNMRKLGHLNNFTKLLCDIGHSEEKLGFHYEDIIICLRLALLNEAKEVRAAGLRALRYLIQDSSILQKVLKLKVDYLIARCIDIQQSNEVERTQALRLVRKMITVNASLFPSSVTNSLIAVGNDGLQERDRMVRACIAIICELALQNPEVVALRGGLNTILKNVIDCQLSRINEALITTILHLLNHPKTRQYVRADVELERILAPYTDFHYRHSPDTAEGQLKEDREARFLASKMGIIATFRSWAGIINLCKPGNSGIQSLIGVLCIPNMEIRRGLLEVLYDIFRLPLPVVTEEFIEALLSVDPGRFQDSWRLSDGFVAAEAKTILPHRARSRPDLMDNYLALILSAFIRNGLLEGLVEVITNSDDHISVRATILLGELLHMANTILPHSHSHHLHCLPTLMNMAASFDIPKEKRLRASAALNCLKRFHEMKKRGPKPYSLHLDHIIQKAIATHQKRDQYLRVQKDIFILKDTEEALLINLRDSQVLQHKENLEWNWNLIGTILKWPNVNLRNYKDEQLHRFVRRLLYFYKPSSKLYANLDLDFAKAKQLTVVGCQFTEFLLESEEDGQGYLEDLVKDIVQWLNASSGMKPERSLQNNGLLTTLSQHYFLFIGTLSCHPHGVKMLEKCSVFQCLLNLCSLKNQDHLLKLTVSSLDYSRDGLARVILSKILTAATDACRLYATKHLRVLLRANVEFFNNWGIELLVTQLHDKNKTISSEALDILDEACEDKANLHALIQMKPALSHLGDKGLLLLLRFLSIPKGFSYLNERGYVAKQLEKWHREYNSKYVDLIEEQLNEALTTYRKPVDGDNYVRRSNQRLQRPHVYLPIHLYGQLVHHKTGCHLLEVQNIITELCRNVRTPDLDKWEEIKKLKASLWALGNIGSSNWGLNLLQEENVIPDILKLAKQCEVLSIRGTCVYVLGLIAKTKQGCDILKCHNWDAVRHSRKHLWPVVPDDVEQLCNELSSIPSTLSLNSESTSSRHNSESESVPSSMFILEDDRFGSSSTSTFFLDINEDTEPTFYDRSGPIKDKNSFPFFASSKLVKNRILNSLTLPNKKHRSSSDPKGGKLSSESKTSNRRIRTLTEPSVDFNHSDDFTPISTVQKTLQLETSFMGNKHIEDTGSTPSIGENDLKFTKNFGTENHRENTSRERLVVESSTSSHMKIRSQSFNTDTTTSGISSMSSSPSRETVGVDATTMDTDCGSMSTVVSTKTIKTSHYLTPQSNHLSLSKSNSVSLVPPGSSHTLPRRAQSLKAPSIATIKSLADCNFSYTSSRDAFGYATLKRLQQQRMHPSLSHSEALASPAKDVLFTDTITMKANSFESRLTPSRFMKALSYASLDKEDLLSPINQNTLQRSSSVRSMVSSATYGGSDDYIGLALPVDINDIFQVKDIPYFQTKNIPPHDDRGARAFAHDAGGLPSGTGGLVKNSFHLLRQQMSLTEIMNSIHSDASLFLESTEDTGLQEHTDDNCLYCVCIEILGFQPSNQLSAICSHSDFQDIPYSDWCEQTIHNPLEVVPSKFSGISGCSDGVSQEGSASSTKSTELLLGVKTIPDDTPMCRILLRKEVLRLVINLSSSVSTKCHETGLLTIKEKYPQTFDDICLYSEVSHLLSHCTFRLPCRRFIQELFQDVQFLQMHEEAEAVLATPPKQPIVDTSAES
UniProt Q9GZR2: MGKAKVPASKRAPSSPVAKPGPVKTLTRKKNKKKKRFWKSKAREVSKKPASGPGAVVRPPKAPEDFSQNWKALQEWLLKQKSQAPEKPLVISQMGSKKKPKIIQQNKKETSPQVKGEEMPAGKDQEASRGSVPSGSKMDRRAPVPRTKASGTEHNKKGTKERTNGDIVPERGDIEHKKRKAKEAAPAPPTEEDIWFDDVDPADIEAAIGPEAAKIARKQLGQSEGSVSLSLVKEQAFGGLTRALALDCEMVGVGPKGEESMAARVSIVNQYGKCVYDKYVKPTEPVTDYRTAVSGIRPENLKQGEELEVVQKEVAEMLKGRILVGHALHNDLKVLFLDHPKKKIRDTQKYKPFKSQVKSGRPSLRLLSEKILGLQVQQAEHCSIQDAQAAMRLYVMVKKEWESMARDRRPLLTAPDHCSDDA

Target	probe-labelled cysteine peptide fold change (10 µM)	probe-labelled cysteine peptide fold change (50 µM)
RECQL4_O94761_814_DGQPAHCHLFLQPQGEDLR (UniProt O94761)	-0.0251	-0.0847
RNF138_Q8WVD3_192_LLDHCNSNHLFQIVPVTCPICVSLPWGDPSQITR (UniProt Q8WVD3)	0.121	0.0983
RLF_Q13129_1317_TCNSSFTNLK (UniProt Q13129)	0.0665	0.133
RIOK3_O14730_346_AGIPCPTVVLLK (UniProt O14730)	0.0924	-0.0839
REXO2_Q9Y3B8_137_QQTPPGLCPLAGNSVHEDKK (UniProt Q9Y3B8)	-0.0798	-0.145
RHOT1_Q8IXI2_216_ICFNTPLAPQALEDVK (UniProt Q8IXI2)	0.287	0.649
RNF114_Q9Y508_56_PVQVPCGHVFCSACLQECLKPK (UniProt Q9Y508)	0.184	0.0867
RLF_Q13129_587_MHMEDGIYTCPVCIK (UniProt Q13129)	0.0157	0.066
RGS12_O14924_930_EHGDHADDALHANGGLCR (UniProt O14924)	0.245	0.438
RECQL_P46063_321_GQSGIIYCFSQK (UniProt P46063)	0.109	0.149
RIOK2_Q9BVS4_197_HAVVMELINGYPLCQIHHVEDPASVYDEAMELIVK (UniProt Q9BVS4)	0.344	0.282
RLF_Q13129_1055_RPCTEDTMLELLLR (UniProt Q13129)	-0.148	-0.28
RNF114_Q9Y508_32_FTCPVCLEVYEK (UniProt Q9Y508)	-0.0142	-0.158
RENBP_P51606_51_VVAFWMEHSHDQEHGGFFTCLGR (UniProt P51606)	-0.139	0.0206
RMND5A_Q9H871_4_MDQCVTVER (UniProt Q9H871)	-0.205	0.373
RICTOR_Q6R327_906_TGCHLLEVQNIITELCR (UniProt Q6R327)	0.0688	-0.0251
RNF114_Q9Y508_64_KPVCGVCR (UniProt Q9Y508)	0.0642	-0.0371
RFC2_P35250_255_VCDEPHPLLVK (UniProt P35250)	0.122	0.113
RLF_Q13129_1015_LDAEPKPCSDTNSDSPDEGLDHNIHIK (UniProt Q13129)	-0.233	-0.173
REXO4_Q9GZR2_382_ILGLQVQQAEHCSIQDAQAAMR (UniProt Q9GZR2)	-0.131	-0.51
RGS10_O43665_66_EFSEENVLFWLACEDFKK (UniProt O43665)	0.0842	0.0916
RNF149_Q8NC42_295_ICIDPWLLDHR (UniProt Q8NC42)	-0.125	-0.168
REPIN1_Q9BWE0_520_IHTGERPYACPDCDR (UniProt Q9BWE0)	0.0967	0.105
RFC5_P40937_73_TSTILACAK (UniProt P40937)	-0.049	0.0665
RILPL2_Q969X0_161_SQLLVVQEELQCYK (UniProt Q969X0)	-0.135	-0.0772
RMDN1_Q96DB5_170_WYAICLSDVGDYEGIK (UniProt Q96DB5)	0.371	0.484
REXO4_Q9GZR2_248_ALALDCEMVGVGPK (UniProt Q9GZR2)	0.102	0.186
RLF_Q13129_663_LEDCHLQDR (UniProt Q13129)	0.0947	-0.0164
RNASEH1_O60930_191_AEIHAACK (UniProt O60930)	-0.0799	-0.155
RNF139_Q8WU17_550_LQEINDVCAICYHEFTTSAR (UniProt Q8WU17)	-0.112	0.195

Reference: the supplement of paper PMC12067093, “Discovery and optimisation of a covalent ligand for TRIM25 and its application to targeted protein ubiquitination” (Chemical Science, 2025)
